# Some results were stated once for a whole list of compounds, not compound by compound.
# How the values were obtained:
# Type in all cases: cell-based, human
# [1] = system: fatty acid synthesis pathway activity; assay: Fatty acid synthesis by [U-14C]-acetic acid pulse in cells; conditions: at the doses used; 3 hour [U-14C]-acetic acid pulse after 2 hours of drug exposure
# [2] = system: cyclin A-associated kinase activity; assay: Immunocomplex-kinase assay after drug exposure of RKO cells, cyclin A; conditions: 10 μg/ml, 4 and 8 h after exposure
# Protocol: The effect of FAS inhibitors on the activity of cyclin/cdk complexes in RKO cells was determined in a time course analysis. After RKO cells were exposed to FAS inhibitors for the indicated time periods, cyclin A- and cyclin B 1-associated kinase activities were determined by an immunocomplex-kinase assay.
# Five×10^6 RKO cells per 100-mm plate were treated with 10 μg/ml cerulenin or C-75 for the indicated time intervals. The control cells received equivalent amounts of DMSO. After drug treatment, the plates were washed once and lysed with immunoprecipitation (IP) buffer (150 mM Tris, pH 7.4, 150 mM NaCl, 1% Triton X-100, 0.5% NP-40, 1 mM ethyleneglyco-bis-tetraacetic acid, 0.2 mM sodium vanadate, and 0.2 mM phenylmethylsulfonyl fluoride). Protein concentration was measured using the BCA Protein Assay Kit (Pierce). One hundred μg of protein from each sample was incubated at 4° C. for 1 h with 1 μg of primary antibody (anti-human cyclin A rabbit polyclonal antibody or anti-human cyclin B 1 monoclonal antibody, Santa Cruz) and then overnight after addition of Protein A or protein G-Sepharose (Santa Cruz). […] Samples were resolved by electrophoresis through 12% SDS-polyacrylamide gels and quantitated on a Storm 820 system (Molecular Dynamics). […]
# [3] = system: cyclin B1-associated kinase activity; assay: Immunocomplex-kinase assay after drug exposure of RKO cells, cyclin B1; conditions: 10 μg/ml
smiles,measurement,setting,value
"CCCCCCCCCCCCCCOc1ccc(C(=O)O)o1 [TOFA, 5-(tetradecyloxy)-2-furoic acid]",residual fatty acid synthesis,[1],≤ 60 % of control levels
"C/C=C/C/C=C/CCC(=O)[C@H]1O[C@H]1C(N)=O [cerulenin, (2R, 3S)-2,3-epoxy-4-oxo-7,10-trans,trans-dodecadienamide]",kinase activity associated with immunoprecipitated cyclin A complexes,[2],less than 40 % of control levels
same,kinase activity associated with immunoprecipitated cyclin B,[3]; 4 and 8 h after exposure,less than 5 % of control levels
same,kinase activity associated with immunoprecipitated cyclin B,[3]; 16 and 24 h,greater than 80 % of control levels

# Source: patent US20020173447A1, “Cytostatic effects of fatty acid synthase inhibition” (priority 2001, published 2002)
